These are yes or no findings as the source states them, for the method shown. A result given as binding can be weak or reduced; the word gives no strength.
Legend:
Experiment in all cases: two-hybrid; mature SAP11 proteins in pDEST-GAD-T7, full length TCPs or TCP domains in pDEST-GBK-T7; S. cerevisiae AH109; growth on media without leucine, tryptophan and histidine with 20 mM 3-Amino-1,2,4-triazole (3AT)
[1] = biological target: T1, TEOSINTE BRANCHED 1 (TB1, ZmTCP02), full length (Zea mays) (UniProt Q93WI2)
T1 sequence: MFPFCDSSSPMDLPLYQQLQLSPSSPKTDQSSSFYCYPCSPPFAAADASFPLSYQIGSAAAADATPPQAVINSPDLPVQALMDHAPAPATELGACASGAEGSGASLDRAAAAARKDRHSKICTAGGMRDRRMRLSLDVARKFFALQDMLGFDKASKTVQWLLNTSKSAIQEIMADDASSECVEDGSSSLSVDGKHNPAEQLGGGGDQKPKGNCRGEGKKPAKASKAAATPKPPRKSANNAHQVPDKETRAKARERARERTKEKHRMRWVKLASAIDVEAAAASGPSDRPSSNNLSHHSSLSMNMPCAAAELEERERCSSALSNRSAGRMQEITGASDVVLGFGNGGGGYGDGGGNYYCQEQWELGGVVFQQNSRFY

[2] = biological target: T2, TCP domain of BRC1 (AtTCP18) (Arabidopsis thaliana) (UniProt A1YKT1)
T2 sequence: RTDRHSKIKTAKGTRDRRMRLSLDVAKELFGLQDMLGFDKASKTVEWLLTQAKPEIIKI

[3] = biological target: T3, BRANCHED 1 (BRC1, AtTCP18), full length (Arabidopsis thaliana) (UniProt A1YKT1)
T3 sequence: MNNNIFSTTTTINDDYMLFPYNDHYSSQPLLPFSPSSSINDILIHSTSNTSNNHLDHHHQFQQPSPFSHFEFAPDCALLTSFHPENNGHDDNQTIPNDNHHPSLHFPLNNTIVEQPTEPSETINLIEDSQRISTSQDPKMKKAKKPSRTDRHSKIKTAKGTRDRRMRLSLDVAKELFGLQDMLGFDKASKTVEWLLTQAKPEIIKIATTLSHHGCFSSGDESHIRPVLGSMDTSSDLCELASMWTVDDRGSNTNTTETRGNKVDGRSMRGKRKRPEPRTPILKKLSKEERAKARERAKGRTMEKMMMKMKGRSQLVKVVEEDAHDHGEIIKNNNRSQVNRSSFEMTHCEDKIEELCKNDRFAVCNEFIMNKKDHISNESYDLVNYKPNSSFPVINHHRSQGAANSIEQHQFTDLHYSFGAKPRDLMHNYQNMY

[4] = biological target: T4, AtTCP2, full length (Arabidopsis thaliana) (UniProt Q93V43)
T4 sequence: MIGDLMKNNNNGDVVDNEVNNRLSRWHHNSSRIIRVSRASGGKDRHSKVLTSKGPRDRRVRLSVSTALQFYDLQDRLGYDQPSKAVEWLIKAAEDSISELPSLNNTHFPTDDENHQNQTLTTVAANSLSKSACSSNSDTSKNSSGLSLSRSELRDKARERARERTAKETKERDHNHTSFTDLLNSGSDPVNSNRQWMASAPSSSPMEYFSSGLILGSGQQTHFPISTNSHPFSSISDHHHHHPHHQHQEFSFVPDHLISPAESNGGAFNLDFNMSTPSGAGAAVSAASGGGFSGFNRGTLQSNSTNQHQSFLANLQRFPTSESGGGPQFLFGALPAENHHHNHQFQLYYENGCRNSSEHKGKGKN

[5] = biological target: T5, TCP domain of AtTCP2 (Arabidopsis thaliana) (UniProt Q93V43)
T5 sequence: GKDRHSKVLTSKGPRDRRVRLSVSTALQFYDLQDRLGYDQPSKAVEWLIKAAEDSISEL

Measured: binding

SAP11 homolog of Maize Bushy Stunt Phytoplasma (MBSP)
binds: [1] | [2] | [3]

secreted AYWB protein 11 (SAP11) of Aster Yellows phytoplasma strain Witches' Broom
binds: all assays above

Reference: PMC6802841
